Laboratory results reported in doi:10.1101/2022.10.19.22280748.
No constants are given. Whether binding was seen depends on the method and setting. In cells and extracts the contact can be indirect. Some results given as binding are weak or reduced against the parent protein; the word gives no strength.

Protein sequences, listed by entry. Tags and fused reporters are not part of them. Lines headed by an entry give the natural chain unless they say otherwise; changes in a name come on top.
UniProt P68371: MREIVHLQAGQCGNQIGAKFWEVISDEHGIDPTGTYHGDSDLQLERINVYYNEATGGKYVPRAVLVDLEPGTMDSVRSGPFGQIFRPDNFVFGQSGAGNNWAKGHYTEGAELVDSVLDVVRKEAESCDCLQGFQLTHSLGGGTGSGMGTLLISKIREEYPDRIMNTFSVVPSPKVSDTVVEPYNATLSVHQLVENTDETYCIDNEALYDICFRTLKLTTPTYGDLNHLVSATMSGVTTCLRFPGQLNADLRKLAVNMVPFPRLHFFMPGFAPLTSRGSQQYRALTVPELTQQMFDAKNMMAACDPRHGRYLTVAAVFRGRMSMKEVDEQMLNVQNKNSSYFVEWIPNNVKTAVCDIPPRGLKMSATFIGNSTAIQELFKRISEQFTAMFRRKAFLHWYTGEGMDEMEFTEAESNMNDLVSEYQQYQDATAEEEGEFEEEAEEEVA
UniProt Q8BYA0: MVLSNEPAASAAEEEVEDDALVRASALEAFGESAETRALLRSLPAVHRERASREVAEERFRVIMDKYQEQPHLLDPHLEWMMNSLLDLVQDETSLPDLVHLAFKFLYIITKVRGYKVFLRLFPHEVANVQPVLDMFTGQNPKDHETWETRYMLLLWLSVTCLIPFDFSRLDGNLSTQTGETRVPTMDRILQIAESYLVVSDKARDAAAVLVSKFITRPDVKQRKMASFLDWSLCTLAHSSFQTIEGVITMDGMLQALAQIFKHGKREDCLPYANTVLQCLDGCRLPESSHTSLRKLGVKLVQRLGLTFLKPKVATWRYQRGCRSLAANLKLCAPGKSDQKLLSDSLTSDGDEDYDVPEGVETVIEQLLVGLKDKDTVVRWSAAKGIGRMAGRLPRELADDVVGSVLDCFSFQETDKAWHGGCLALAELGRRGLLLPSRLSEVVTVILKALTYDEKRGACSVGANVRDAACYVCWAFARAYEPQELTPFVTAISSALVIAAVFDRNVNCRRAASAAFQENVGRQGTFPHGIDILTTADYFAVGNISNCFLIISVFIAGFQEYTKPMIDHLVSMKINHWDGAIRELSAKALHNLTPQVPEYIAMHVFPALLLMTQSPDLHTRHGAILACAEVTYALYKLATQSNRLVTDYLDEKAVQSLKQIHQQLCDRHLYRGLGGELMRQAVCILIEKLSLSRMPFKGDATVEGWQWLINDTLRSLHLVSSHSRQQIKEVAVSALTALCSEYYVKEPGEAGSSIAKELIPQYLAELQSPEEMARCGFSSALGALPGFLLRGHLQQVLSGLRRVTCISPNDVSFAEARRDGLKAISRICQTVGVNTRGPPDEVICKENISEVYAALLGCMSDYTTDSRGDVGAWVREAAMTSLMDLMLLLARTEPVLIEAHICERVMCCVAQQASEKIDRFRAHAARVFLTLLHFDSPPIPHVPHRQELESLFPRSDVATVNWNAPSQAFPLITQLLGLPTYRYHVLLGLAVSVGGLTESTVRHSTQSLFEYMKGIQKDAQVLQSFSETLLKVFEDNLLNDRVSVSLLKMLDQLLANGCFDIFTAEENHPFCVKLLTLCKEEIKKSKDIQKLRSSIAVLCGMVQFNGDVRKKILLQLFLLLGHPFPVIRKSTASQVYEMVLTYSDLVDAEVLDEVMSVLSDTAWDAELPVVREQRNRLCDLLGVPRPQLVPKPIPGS

What was measured:
[1] = biological target: human TUBB4B p.P259L, C-terminal ALFA tag (human) (UniProt P68371); experiment: co-IP
[2] = biological target: human TUBB4B p.P259S, C-terminal ALFA tag (human) (UniProt P68371); experiment: co-IP

binding [1]: binds | binding [2]: binds
Substance: TBCD (tubulin folding co-factor D), endogenous in IMCD3 cells (from UniProt Q8BYA0 1-1196)
